No constants are given. Whether binding was seen depends on the method and setting. Some results given as binding are weak or reduced against the parent protein; the word gives no strength.
Columns and labels:
collagen type IV (mouse) = target: T1, collagen type IV (mouse) (mouse, UniProt P02463 28-1669; P08122 26-1707); experiment: plate assay: biotinylated peptide (5.0 mg/ml) on dried ECM coating, streptavidin-488 fluorescence
T1 construct: IV (mouse)'; Coated and dried on plates at 10 ug/cm2; also called collagen IV

Amino acid sequences for entries named in this document (tags omitted). A change or cut given only in a name is not applied to a line headed by its entry.
UniProt P02463: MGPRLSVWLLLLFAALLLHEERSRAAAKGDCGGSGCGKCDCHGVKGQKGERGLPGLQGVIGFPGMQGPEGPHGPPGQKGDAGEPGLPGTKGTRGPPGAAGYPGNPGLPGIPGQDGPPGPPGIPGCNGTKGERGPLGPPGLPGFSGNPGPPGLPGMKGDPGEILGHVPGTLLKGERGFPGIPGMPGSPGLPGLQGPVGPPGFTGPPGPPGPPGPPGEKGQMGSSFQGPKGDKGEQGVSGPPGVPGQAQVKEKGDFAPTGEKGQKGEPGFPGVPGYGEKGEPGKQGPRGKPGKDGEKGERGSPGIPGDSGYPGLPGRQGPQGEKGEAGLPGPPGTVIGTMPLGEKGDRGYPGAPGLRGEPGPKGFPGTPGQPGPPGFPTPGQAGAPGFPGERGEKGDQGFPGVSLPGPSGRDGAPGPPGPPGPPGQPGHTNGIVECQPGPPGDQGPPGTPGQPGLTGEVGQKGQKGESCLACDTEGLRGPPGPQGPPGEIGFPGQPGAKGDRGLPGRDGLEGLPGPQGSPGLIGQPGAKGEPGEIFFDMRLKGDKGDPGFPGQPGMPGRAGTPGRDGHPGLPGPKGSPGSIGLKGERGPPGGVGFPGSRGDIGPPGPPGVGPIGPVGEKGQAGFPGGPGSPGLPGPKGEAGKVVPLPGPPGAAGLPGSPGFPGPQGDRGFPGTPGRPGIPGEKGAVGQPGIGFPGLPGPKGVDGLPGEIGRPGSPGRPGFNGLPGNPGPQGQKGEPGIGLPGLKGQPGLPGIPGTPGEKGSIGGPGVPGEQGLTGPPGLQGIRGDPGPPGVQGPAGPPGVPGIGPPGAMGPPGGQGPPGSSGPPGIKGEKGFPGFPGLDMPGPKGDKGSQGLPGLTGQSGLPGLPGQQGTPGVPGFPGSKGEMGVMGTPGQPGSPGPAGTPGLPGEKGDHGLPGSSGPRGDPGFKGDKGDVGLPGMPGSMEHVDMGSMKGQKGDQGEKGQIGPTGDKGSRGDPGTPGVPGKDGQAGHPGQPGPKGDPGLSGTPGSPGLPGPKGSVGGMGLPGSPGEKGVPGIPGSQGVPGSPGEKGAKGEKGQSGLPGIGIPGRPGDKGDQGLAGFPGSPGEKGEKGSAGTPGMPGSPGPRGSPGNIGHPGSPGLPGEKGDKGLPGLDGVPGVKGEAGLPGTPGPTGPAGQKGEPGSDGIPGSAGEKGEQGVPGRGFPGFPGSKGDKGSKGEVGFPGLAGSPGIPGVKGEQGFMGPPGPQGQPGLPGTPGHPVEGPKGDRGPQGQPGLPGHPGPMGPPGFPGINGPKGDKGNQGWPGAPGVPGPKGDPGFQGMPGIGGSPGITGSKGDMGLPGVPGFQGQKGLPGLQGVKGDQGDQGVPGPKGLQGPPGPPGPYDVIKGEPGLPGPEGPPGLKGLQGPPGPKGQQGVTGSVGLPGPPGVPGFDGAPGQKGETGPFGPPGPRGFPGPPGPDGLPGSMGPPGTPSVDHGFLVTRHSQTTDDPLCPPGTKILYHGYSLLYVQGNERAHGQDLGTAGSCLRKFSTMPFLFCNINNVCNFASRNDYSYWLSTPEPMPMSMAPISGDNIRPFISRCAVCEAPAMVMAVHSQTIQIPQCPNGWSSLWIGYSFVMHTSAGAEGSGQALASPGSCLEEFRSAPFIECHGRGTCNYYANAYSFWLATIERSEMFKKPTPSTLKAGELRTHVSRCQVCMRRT
UniProt P02454: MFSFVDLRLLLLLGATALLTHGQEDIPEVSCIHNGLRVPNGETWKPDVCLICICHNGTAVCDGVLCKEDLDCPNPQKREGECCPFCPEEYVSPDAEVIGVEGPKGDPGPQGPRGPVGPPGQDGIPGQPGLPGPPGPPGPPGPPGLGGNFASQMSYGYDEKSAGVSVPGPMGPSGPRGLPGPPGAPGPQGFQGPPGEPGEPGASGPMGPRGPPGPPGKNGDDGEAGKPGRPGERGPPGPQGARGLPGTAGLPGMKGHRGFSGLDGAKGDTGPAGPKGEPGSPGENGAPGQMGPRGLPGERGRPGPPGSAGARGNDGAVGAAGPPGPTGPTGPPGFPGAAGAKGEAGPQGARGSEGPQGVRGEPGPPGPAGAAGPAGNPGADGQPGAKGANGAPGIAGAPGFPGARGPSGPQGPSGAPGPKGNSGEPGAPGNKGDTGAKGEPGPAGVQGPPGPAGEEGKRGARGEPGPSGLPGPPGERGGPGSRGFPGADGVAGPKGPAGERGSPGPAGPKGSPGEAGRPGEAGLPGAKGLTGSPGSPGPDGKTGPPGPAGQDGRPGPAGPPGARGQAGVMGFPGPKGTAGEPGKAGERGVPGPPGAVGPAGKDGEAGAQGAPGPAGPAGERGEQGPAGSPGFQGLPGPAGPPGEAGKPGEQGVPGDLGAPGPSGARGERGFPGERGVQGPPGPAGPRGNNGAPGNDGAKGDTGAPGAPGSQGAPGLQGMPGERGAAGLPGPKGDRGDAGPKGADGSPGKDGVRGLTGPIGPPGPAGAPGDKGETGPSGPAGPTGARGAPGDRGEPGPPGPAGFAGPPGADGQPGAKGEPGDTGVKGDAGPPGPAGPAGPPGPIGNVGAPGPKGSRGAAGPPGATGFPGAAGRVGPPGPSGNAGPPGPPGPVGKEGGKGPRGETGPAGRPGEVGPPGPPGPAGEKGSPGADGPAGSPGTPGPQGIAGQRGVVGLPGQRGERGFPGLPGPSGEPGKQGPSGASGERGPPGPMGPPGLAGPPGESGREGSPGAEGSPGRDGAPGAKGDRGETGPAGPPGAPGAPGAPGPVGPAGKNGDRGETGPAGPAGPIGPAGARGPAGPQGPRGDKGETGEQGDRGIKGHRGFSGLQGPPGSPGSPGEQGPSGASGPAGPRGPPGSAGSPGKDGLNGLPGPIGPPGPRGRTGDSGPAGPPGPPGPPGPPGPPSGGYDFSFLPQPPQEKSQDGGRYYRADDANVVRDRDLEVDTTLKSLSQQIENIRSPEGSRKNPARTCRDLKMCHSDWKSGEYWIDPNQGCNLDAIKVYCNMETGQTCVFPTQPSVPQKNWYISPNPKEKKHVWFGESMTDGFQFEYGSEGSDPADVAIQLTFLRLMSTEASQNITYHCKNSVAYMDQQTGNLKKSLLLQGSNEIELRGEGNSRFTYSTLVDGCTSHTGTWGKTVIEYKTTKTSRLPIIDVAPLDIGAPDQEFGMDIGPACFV

collagen type I (rat) = target: T2, collagen type I (rat) (rat, UniProt P02454 152-1207; P02466 86-1125); experiment: as above
T2 construct: Coated and dried on 96-well plates at 10 ug/cm2; also called collagen I

Binder | binding (collagen type IV (mouse)) | binding (collagen type I (rat))
KTKATVKIKNKQKSVNALKQKIVLLSK (N-terminal biotin; free C-terminus) [Peptide 7c] | binds | binds
TNLRNKYTFLARARANLAVRNKQNIKS (N-terminal biotin; free C-terminus) [Peptide BHP4] | binds | –
TKAKIKHSVKLKAKLRIKLVKRI (N-terminal biotin; free C-terminus) [Peptide 10K] | – | binds
